This is an account of results in PubChem BioAssay AID493014 (National Center for Advancing Translational Sciences (NCATS), 2011).

The list shows a part of the results. Shown are side measurements of this screen, not its main read-out; they come without a call. Most of these compounds were active or inconclusive in the main read-out, so they are no random draw. Words in brackets tell the shape of the fitted curve; partial curves, single points and poor fits give uncertain potencies.

The nature of this test: qHTS Assay to Find Inhibitors of Chronic Active B-Cell Receptor Signaling. The settings on record: ABC-DLBCL IkBa-CBG/CBR reporter, luminescence ratio (green luciferase fused to IkBa over red control in TMD8 lymphoma cells), 4 h. The essentials: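 TMD8 ABC-DLBCL cells carrying doxycycline-inducible green luciferase fused to IkappaBalpha plus unfused red luciferase were exposed to compounds (up to 46 uM) for 4 hrs at 37C. Activity came from the overlap-corrected green/red luminescence ratio.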
In general terms: qHTS replaces the single test concentration by a dilution series.

Setting [1] is: measured here: CBR red luminescence, cell number.
Setting [2] is: measured here: IkBa-CBG green luminescence.

Regarding `CCCCCCNC(=O)CC(c1ccccc1)c1cc(Br)ccc1O` (configuration not stated), the concentration at half-maximal activity (AC50) is 9.2 µM [falling, partial curve] under setting [1] and 18.4 µM [rising, partial curve, poor fit] under setting [2]. On to `COC(=O)C1=C(N)c2c(F)cccc2C1(C#N)c1ccc(F)cc1` (configuration not stated), for which the AC50 under setting [1] is 0.326 µM [falling, partial curve, poor fit]. As for `CC(C(=O)NC1(C#N)CCCCC1)N(C)CC(=O)Nc1ccc(Cl)c(Cl)c1` (configuration not stated), the concentration at half-maximal activity (AC50) under setting [1] was 0.184 µM [falling, full curve, poor fit]. Consider `CCCn1cnc2cc(NCc3cccs3)ccc21`, for which, under setting [1], the AC50 was 7.94 µM [falling, partial curve]. Same read-out and setting: the same measure for `O=[N+]([O-])c1cc(S(=O)(=O)NCCc2ccccn2)ccc1Cl`: 16.4 µM [falling, single point].

For `Cc1ccc(C2=NNC(C(O)C(O)C(O)C(O)CO)S2)cc1` (configuration not stated), under setting [1], the AC50 is 6.51 µM [rising, full curve]. In the case of `Cc1cc(C)c2oc(C(=O)N3CCN(Cc4ccccc4)CC3)cc(=O)c2c1`, under setting [1], the AC50 is 35.5 µM [falling, single point]. In the case of `N#Cc1cc(C(=O)c2ccccc2O)cn(-c2nccs2)c1=O`, the AC50 under setting [1] is 20.6 µM [falling, partial curve].

Take `COc1ccc(CNC(=O)N[C@H](C(=O)O)C(C)C)cc1OC`: the AC50 under setting [1] was 1.12 µM [rising, full curve, poor fit]. Turning to `O/C(=C\c1nc2ccccc2nc1/C=C(\O)c1ccccc1)c1ccccc1`, under setting [1], the AC50 was 3.16 µM [falling, partial curve]. For the molecule `O=C(Nc1ccc(N2C(=O)C3C4C=CC(C4)C3C2=O)cc1)Nc1nnc(C(F)(F)F)s1` (configuration not stated), the AC50 under setting [1] was 18.4 µM [rising, single point].

In the case of `CN(C)c1ccc(-n2cccc2/C=C/[N+](=O)[O-])cc1`, the AC50 was 5.62 µM [falling, full curve] under setting [1] and 35.5 µM [rising, partial curve, poor fit] under setting [2]. In the case of `O=C(/C=C/c1ccccc1)N1CCOCC1`, the half-maximal activity concentration (AC50) under setting [1] was 1.41 µM [rising, full curve].

Regarding `Cc1nn(C)c(C(=O)NNC(=S)NCc2ccco2)c1Cl`, the AC50 under setting [1] is 29.1 µM [falling, single point] and the AC50 under setting [2] is 23.1 µM [rising, partial curve, poor fit]. For `Nc1ncc(N=Nc2cc(C(=O)O)ccc2Cl)s1`, the AC50 under setting [1] is 20 µM [falling, single point]. Take `CCc1ccc(N2C(=O)C(Cl)=C(N3CCOCC3)C2=O)cc1`: the concentration at half-maximal activity (AC50) under setting [1] is 8.2 µM [rising, partial curve, poor fit]. For `O=C(c1ccc2c(c1)OCCO2)C1CCN(C(=O)c2ccc(F)cc2)CC1`, under setting [1], the AC50 was 6.51 µM [rising, single point]. For `O=C(CCCN1C(=O)/C(=C\c2cccs2)SC1=S)Nc1cccnc1`, the AC50 under setting [1] was 6.51 µM [falling, partial curve]. On to `O=C(CCc1ccccc1)NC(=S)Nc1cccc(C(=O)O)c1`, for which the half-maximal activity concentration (AC50) under setting [1] is 17.8 µM [falling, partial curve, poor fit]. Regarding `CCOC(=O)C1/C(=N\O)CC(C)(O)C(C(=O)OCC)C1c1ccc(N(C)C)cc1` (configuration not stated), the concentration at half-maximal activity (AC50) under setting [1] was 2.06 µM [rising, partial curve, poor fit].

Turning to `COC(=O)c1c(NC(=O)Cc2ccccc2)sc(C)c1C`, the AC50 under setting [1] is 11.6 µM [falling, partial curve, poor fit]. Consider `Cc1ccc(C(C(=O)NCC2CCCO2)N(Cc2ccccc2)C(=O)c2ccc(-c3ccccc3)[nH]2)o1` (configuration not stated), for which the concentration at half-maximal activity (AC50) under setting [2] was 23.1 µM [rising, partial curve, poor fit]. With `NCCCC[C@@H](C(=O)N1CCNCC1)n1cc(CCC(=O)O)nn1`, under setting [1], the AC50 is 0.562 µM [falling, full curve, poor fit].

As for `O=C(Nc1ccccc1F)c1ccc2nc(N3C(=O)CCC3=O)sc2c1`, the concentration at half-maximal activity (AC50) under setting [1] is 0.562 µM [falling, full curve, poor fit]. As for `CC(=O)Nc1ccc(NC(=O)C(C)OC(=O)c2cccc(S(=O)(=O)N3CCCCCC3)c2)cc1` (configuration not stated), the AC50 under setting [1] is 0.731 µM [rising, full curve, poor fit].

With `COc1cc(NC(=O)Cn2cnc3c(SC)nc(N)nc32)cc(OC)c1OC`, the half-maximal activity concentration (AC50) under setting [1] is 1.03 µM [falling, single point].

Regarding `NNc1ccc(Cc2ccc(Cl)cc2Cl)nn1`, the AC50 under setting [1] was 35.5 µM [rising, single point]. In the case of `Cc1sc2ncnc(SCC(=O)NC(=O)NCc3ccco3)c2c1C`, under setting [1], the half-maximal activity concentration (AC50) was 35.5 µM [rising, single point].

With `O=C(Nc1ccccc1C(=O)Nc1ccc2c(c1)OCO2)c1cccs1`, the AC50 under setting [1] was 9.2 µM [falling, partial curve, poor fit].

`Cc1cc(C)n2nc(CC(=O)NC3CCCCCCC3)nc2n1`: the AC50 under setting [1] was 28.2 µM [falling, single point].

In the case of `CC(=O)/C(=N/Nc1cccc(Cl)c1)N1CCOCC1`, under setting [1], the AC50 was 29.1 µM [falling, single point]. In the case of `O=C(N/N=C/c1ccccn1)c1ccc(NC(=O)c2ccccc2Cl)cc1`, the AC50 is 11.2 µM [falling, partial curve, poor fit] under setting [1] and 12.6 µM [rising, partial curve, poor fit] under setting [2]. As to `CCc1nc2ccc(C(=O)Nc3cccc(C(C)=O)c3)cc2nc1CC`, the AC50 under setting [2] is 3.66 µM [rising, full curve, poor fit]. Turning to `CCOC(=O)c1cn2nc(Oc3cccc(C(F)(F)F)c3)ccc2n1`, the concentration at half-maximal activity (AC50) under setting [1] is 14.1 µM [falling, single point]. `O=C(O)c1ccc(/C=N/NC(=O)c2ccc(Br)cc2)cc1`: under setting [1], the AC50 is 29.1 µM [falling, single point]. Regarding `CC(C)[C@H](NC(=O)c1ccccc1)C(=O)OCC(=O)/C=C1/N(C)c2ccccc2C1(C)C`, under setting [1], the concentration at half-maximal activity (AC50) is 32.6 µM [falling, single point].

With `COc1ccc(C2OC(=O)CC2C(=O)NCc2ccc(F)cc2)cc1OC` (configuration not stated), the AC50 under setting [1] is 35.5 µM [falling, single point]. In the case of `COc1ccccc1NC(=O)CSc1nnc(Cc2cccn2C)n1-c1ccc(F)cc1`, under setting [1], the half-maximal activity concentration (AC50) was 16.4 µM [falling, single point].

On to `Cc1ccc(C(=O)/C=C\C(=O)c2ccc(C)cc2)cc1`, for which the AC50 under setting [1] was 10.3 µM [falling, partial curve, poor fit]. Take `CC(/C=N/N1CCN(c2ccccn2)CC1)=C\c1ccccc1`: under setting [1], the concentration at half-maximal activity (AC50) was 8.2 µM [rising, partial curve, poor fit]. Still for that read-out and setting: under `COc1cccc(N2C(=O)[C@H]3C(C(=O)c4cnccn4)=NN[C@H]3C2=O)c1` stands 1.26 µM [falling, full curve, poor fit]; under `COc1ccc(-c2cccc(-c3cc(=O)oc4cc(OC)c(OC)c(OC)c34)c2)cc1`, 11.6 µM [rising, partial curve, poor fit]. As to `Cc1ccc(SCc2nc3ccccc3n2CC(=O)Nc2ccccc2)cc1`, the concentration at half-maximal activity (AC50) under setting [1] is 7.94 µM [falling, partial curve].

As to `Cc1cccc(C)c1OCC(=O)Nc1ccc(N2CCOCC2)cc1`, under setting [1], the AC50 was 15.8 µM [rising, single point]. As for `COc1ccc(C2=Nn3c(nnc3-c3ccccc3F)SC2)cc1OCC1CC1`, the AC50 under setting [2] was 10.3 µM [falling, partial curve]. Turning to `Cc1ccc(-c2nc3ncccc3o2)cc1NC(=O)c1cccnc1`, under setting [1], the concentration at half-maximal activity (AC50) was 2.82 µM [falling, single point]. Same read-out and setting: the same measure for `c1ccc2c(c1)oc1c(Nc3ccc4c(c3)OCO4)ncnc12`: 3.98 µM [falling, full curve, poor fit]; for `COc1ccc(C(=O)NNC(=O)c2ccccn2)cc1`: 0.326 µM [falling, full curve]. The same measure, in the same setting: the same measure for `C/C(CC(=O)NC1CCCCC1)=N\NC(=O)c1ccccc1C`: 11.2 µM [falling, partial curve, poor fit].

As for `Cc1ccc(NC(=O)CSc2nc3n[nH]c(C)c3c(=N)n2-c2ccccc2C)cc1C`, under setting [1], the AC50 is 2.51 µM [rising, partial curve, poor fit]. With `CCS(=O)(=O)N1CCC(C(=O)NCCc2ccc(C)cc2)CC1`, the half-maximal activity concentration (AC50) reads like this: under setting [1], 4.11 µM [falling, single point]; under setting [2], 2.91 µM [rising, partial curve, poor fit].

As to `Cc1c(Cl)ccc2c1NC(=O)C21NC(CCC(N)=O)[C@H]2C(=O)N(c3ccc(Cl)cc3)C(=O)[C@H]21` (some centres not stated), the half-maximal activity concentration (AC50) under setting [1] is 35.5 µM [falling, single point].

In the case of `COC(CN(C(=O)CCl)C(C(=O)NC1CCCCC1)c1ccccc1C)OC` (configuration not stated), the AC50 under setting [1] is 2.31 µM [falling, partial curve, poor fit]. In the case of `c1ccc(-c2ccccc2OCCCCN2CCCCC2)cc1`, under setting [1], the AC50 is 29.1 µM [falling, single point]. On the same count and under the same terms, the same measure for `O=C(Nc1ccc2ncccc2c1)c1ccccc1Br`: 12.6 µM [falling, single point]; for `CCC(=O)Nc1ccc(Cl)c(NC(=O)c2cccnc2)c1`: 0.651 µM [rising, partial curve, poor fit]. Same read-out and setting: the same measure for `COc1cc(/C=C/C(=O)c2ccc(F)cc2)cc(OC)c1OC`: 10 µM [falling, partial curve]. Regarding `COc1cccc(C(=O)NCCSCc2c(F)cccc2Cl)c1`, the AC50 under setting [1] is 15.8 µM [falling, partial curve, poor fit].

Turning to `CCOc1ccc(S(=O)(=O)N(CC(=O)O)c2ccc(C)cc2)cc1`, the concentration at half-maximal activity (AC50) under setting [1] is 0.103 µM [rising, full curve, poor fit]. The same measure, in the same setting: under `COc1cc(-c2nnn(CC(=O)NC3CCS(=O)(=O)C3)n2)ccc1OCc1ccccc1` (configuration not stated) stands 35.5 µM [falling, single point]. Consider `O=C1NN=C(c2ccc(Cl)cc2)CC1c1cccc(Cl)c1` (configuration not stated), for which the concentration at half-maximal activity (AC50) under setting [1] is 16.4 µM [falling, partial curve]. `Brc1ccc(OCCCOc2cccc3cccnc23)cc1`: the half-maximal activity concentration (AC50) under setting [1] was 2.82 µM [rising, partial curve, poor fit].

What is called AC50 is the concentration giving half of the maximal activity seen.
